PubChem BioAssay AID1259405, NCATS | 2018
The deposit covers about 50,000 reagents; below is an unselected part. Of all reagents, about 4,000 (8%) are marked active. 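Mouse siRNA library applied to hamster cells; one well for each siRNA.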 No sequences are given here.

Purpose: 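Silenced genes that increase secreted GFP made by CHO cells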 (primary screen)
Cells: Chinese hamster CHO-K1 ovary cells with stable secreted eGFP expression
Reagents: single siRNA against mouse genes, 0.8 pmol siRNA per well (2 µl of 400 nM stock)
Duration: 3 days
Measurement: 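Percent of the per-plate non-targeting control median for intracellular GFP per well by laser scanning cytometry and for cell viability by ATP luminescence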
Reading the numbers: GFP, % of control: higher = more GFP per well, higher productivity; viability (ATP), % of control: higher = more viable cells (more ATP)
Rule for the call: 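a knock-down is called active if GFP reaches 120% or more of non-targeting control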

gene knocked down,PubChem SID,"GFP, % of control","viability (ATP), % of control",Outcome
Or8k53 (olfactory receptor family 8 subfamily K member 53),SID363554294,95.5,61.5,inactive
Or8k53 (olfactory receptor family 8 subfamily K member 53),SID363567741,133,89.7,active
Or8k53 (olfactory receptor family 8 subfamily K member 53),SID363585098,65.9,81.7,inactive
"Samsn1 (SAM domain, SH3 domain and nuclear localization signals, 1)",SID363554986,98.1,52.4,inactive
"Samsn1 (SAM domain, SH3 domain and nuclear localization signals, 1)",SID363568433,41.4,66.3,inactive
"Samsn1 (SAM domain, SH3 domain and nuclear localization signals, 1)",SID363586492,64.6,83.4,inactive
Psd4 (pleckstrin and Sec7 domain containing 4),SID363545975,69.8,87.2,inactive
Psd4 (pleckstrin and Sec7 domain containing 4),SID363549488,112,124,inactive
Psd4 (pleckstrin and Sec7 domain containing 4),SID363563294,49,35.6,inactive
Or1e32 (olfactory receptor family 1 subfamily E member 32),SID363554258,65.9,46.6,inactive
Or1e32 (olfactory receptor family 1 subfamily E member 32),SID363567705,76.7,76.1,inactive
Or1e32 (olfactory receptor family 1 subfamily E member 32),SID363585062,62.3,124,inactive
Ccnb1 (cyclin B1),SID363555352,110,91.4,inactive
Ccnb1 (cyclin B1),SID363564013,60,28.9,inactive
Ccnb1 (cyclin B1),SID363587559,123,117,active
Fitm2 (fat storage-inducing transmembrane protein 2),SID363539539,74.5,84.5,inactive
Fitm2 (fat storage-inducing transmembrane protein 2),SID363560840,113,97.7,inactive
Fitm2 (fat storage-inducing transmembrane protein 2),SID363564930,102,97.6,inactive
"Pigc (phosphatidylinositol glycan anchor biosynthesis, class C)",SID363570656,64.5,104,inactive
"Pigc (phosphatidylinositol glycan anchor biosynthesis, class C)",SID363579456,131,96.7,active
"Pigc (phosphatidylinositol glycan anchor biosynthesis, class C)",SID363583328,68.7,100,inactive
Or6k4 (olfactory receptor family 6 subfamily K member 4),SID363544688,15.1,16.7,inactive
Or6k4 (olfactory receptor family 6 subfamily K member 4),SID363551016,97.6,104,inactive
Or6k4 (olfactory receptor family 6 subfamily K member 4),SID363557565,101,69.8,inactive
Josd2 (Josephin domain containing 2),SID363540723,63.7,77.3,inactive
Josd2 (Josephin domain containing 2),SID363543174,113,83.6,inactive
Josd2 (Josephin domain containing 2),SID363552667,80.2,31.7,inactive
"Rasl10b (RAS-like, family 10, member B)",SID363570024,122,93.6,active
"Rasl10b (RAS-like, family 10, member B)",SID363576360,23.8,45.1,inactive
"Rasl10b (RAS-like, family 10, member B)",SID363579528,72.5,48.5,inactive
Elovl3 (ELOVL fatty acid elongase 3),SID363570578,74.5,78,inactive
Elovl3 (ELOVL fatty acid elongase 3),SID363579378,103,92.7,inactive
Elovl3 (ELOVL fatty acid elongase 3),SID363583250,115,114,inactive
Mtmr2 (myotubularin related protein 2),SID363575118,164,92.7,active
Mtmr2 (myotubularin related protein 2),SID363580750,119,70.7,inactive
Mtmr2 (myotubularin related protein 2),SID363582862,88.7,94.9,inactive
Pgp (phosphoglycolate phosphatase),SID363547816,61.6,34.5,inactive
Pgp (phosphoglycolate phosphatase),SID363558585,88.6,81.2,inactive
Pgp (phosphoglycolate phosphatase),SID363560343,65.9,79.6,inactive
Rassf3 (Ras association (RalGDS/AF-6) domain family member 3),SID363545135,67.9,88.7,inactive
Rassf3 (Ras association (RalGDS/AF-6) domain family member 3),SID363548648,51.2,75,inactive
Rassf3 (Ras association (RalGDS/AF-6) domain family member 3),SID363562454,28.6,42.1,inactive
Niban1 (niban apoptosis regulator 1),SID363562075,73.6,71.8,inactive
Niban1 (niban apoptosis regulator 1),SID363567213,68.3,84.4,inactive
Niban1 (niban apoptosis regulator 1),SID363584570,62.4,84.8,inactive
Adm (adrenomedullin),SID363542678,43.9,41.3,inactive
Adm (adrenomedullin),SID363546195,77.7,71.1,inactive
Adm (adrenomedullin),SID363547951,54.4,74,inactive
Evi2a (ecotropic viral integration site 2a),SID363540156,45,68.3,inactive
Evi2a (ecotropic viral integration site 2a),SID363561457,90.1,75.8,inactive
Evi2a (ecotropic viral integration site 2a),SID363564493,79.8,82.3,inactive
Tnr (tenascin R),SID363573363,62.8,86.6,inactive
Tnr (tenascin R),SID363588602,117,112,inactive
Mcam (melanoma cell adhesion molecule),SID363573523,82.1,84.7,inactive
Mcam (melanoma cell adhesion molecule),SID363588762,111,75.3,inactive
Prickle3 (prickle planar cell polarity protein 3),SID363572378,146,80.2,active
Prickle3 (prickle planar cell polarity protein 3),SID363574138,102,96.8,inactive
"Col1a1 (collagen, type I, alpha 1)",SID363553721,49.6,56.8,inactive
"Col1a1 (collagen, type I, alpha 1)",SID363561678,69.7,52.8,inactive
"Col1a1 (collagen, type I, alpha 1)",SID363565416,138,89,active
Zfp3 (zinc finger protein 3),SID363573463,59.5,91.8,inactive
Zfp3 (zinc finger protein 3),SID363588702,78.6,85.8,inactive
Cep44 (centrosomal protein 44),SID363547158,52.6,64,inactive
Cep44 (centrosomal protein 44),SID363549970,59.8,98.4,inactive
Cep44 (centrosomal protein 44),SID363588024,129,125,active
Krt9 (keratin 9),SID363540970,29,61,inactive
Krt9 (keratin 9),SID363555597,64.2,66.8,inactive
Krt9 (keratin 9),SID363565886,53.2,72.1,inactive
Ttn (titin),SID363541307,70.5,64.4,inactive
Ttn (titin),SID363555934,97.1,91.4,inactive
Ttn (titin),SID363566223,86.3,64.4,inactive
Or6c76b (olfactory receptor family 6 subfamily C member 76B),SID363554471,78.1,67.8,inactive
Or6c76b (olfactory receptor family 6 subfamily C member 76B),SID363567918,112,93.8,inactive
Or6c76b (olfactory receptor family 6 subfamily C member 76B),SID363585977,136,103,active
Pus10 (pseudouridylate synthase 10),SID363552227,114,76.7,inactive
Pus10 (pseudouridylate synthase 10),SID363585363,117,89.7,inactive
Pus10 (pseudouridylate synthase 10),SID363585714,142,134,active
"Ap1g2 (adaptor protein complex AP-1, gamma 2 subunit)",SID363544195,44.4,42.8,inactive
"Ap1g2 (adaptor protein complex AP-1, gamma 2 subunit)",SID363550523,88.2,56.8,inactive
"Ap1g2 (adaptor protein complex AP-1, gamma 2 subunit)",SID363557072,90.2,61,inactive
Or9s23 (olfactory receptor family 9 subfamily S member 23),SID363544483,88.8,92,inactive
Or9s23 (olfactory receptor family 9 subfamily S member 23),SID363550811,81.5,89.7,inactive
Or9s23 (olfactory receptor family 9 subfamily S member 23),SID363557360,54.1,36.4,inactive
Wbp1 (WW domain binding protein 1),SID363556854,93.3,76.2,inactive
Wbp1 (WW domain binding protein 1),SID363563758,54.5,29.1,inactive
Wbp1 (WW domain binding protein 1),SID363587304,84,102,inactive
Pcdha2 (protocadherin alpha 2),SID363541782,50.8,68.2,inactive
Pcdha2 (protocadherin alpha 2),SID363553374,57,40.7,inactive
Pcdha2 (protocadherin alpha 2),SID363566698,89.5,81.6,inactive
Vmn1r89 (vomeronasal 1 receptor 89),SID363556799,77.6,57.6,inactive
Vmn1r89 (vomeronasal 1 receptor 89),SID363563703,73.2,47.1,inactive
Vmn1r89 (vomeronasal 1 receptor 89),SID363587249,108,106,inactive
Aak1 (AP2 associated kinase 1),SID363570890,48.7,52.2,inactive
Loricrin (loricrin cornified envelope precursor protein),SID363540523,58.1,67.3,inactive
Loricrin (loricrin cornified envelope precursor protein),SID363542275,76.7,60.2,inactive
Loricrin (loricrin cornified envelope precursor protein),SID363567191,92.2,63,inactive
Habp4 (hyaluronic acid binding protein 4),SID363539877,45.8,62.2,inactive
Habp4 (hyaluronic acid binding protein 4),SID363561178,98,83.7,inactive
Habp4 (hyaluronic acid binding protein 4),SID363564214,167,81.6,active
Impdh1 (inosine monophosphate dehydrogenase 1),SID363575165,107,77.7,inactive
Impdh1 (inosine monophosphate dehydrogenase 1),SID363580797,139,36.6,active
Impdh1 (inosine monophosphate dehydrogenase 1),SID363582909,94.4,95.4,inactive
Nfrkb (nuclear factor related to kappa B binding protein),SID363541186,46.2,50.1,inactive
Nfrkb (nuclear factor related to kappa B binding protein),SID363555813,85.3,109,inactive
Nfrkb (nuclear factor related to kappa B binding protein),SID363566102,65,75.9,inactive
Smc6 (structural maintenance of chromosomes 6),SID363545850,35.8,34.7,inactive
Smc6 (structural maintenance of chromosomes 6),SID363549363,80.2,87.2,inactive
Smc6 (structural maintenance of chromosomes 6),SID363563169,48.5,59,inactive

Already shown: entries from further up.
gene knocked down,PubChem SID,"GFP, % of control","viability (ATP), % of control",Outcome
"Pigc (phosphatidylinositol glycan anchor biosynthesis, class C)",SID363570656,64.5,104,inactive
"Pigc (phosphatidylinositol glycan anchor biosynthesis, class C)",SID363579456,131,96.7,active
"Pigc (phosphatidylinositol glycan anchor biosynthesis, class C)",SID363583328,68.7,100,inactive
Or6k4 (olfactory receptor family 6 subfamily K member 4),SID363544688,15.1,16.7,inactive
Or6k4 (olfactory receptor family 6 subfamily K member 4),SID363551016,97.6,104,inactive
Or6k4 (olfactory receptor family 6 subfamily K member 4),SID363557565,101,69.8,inactive
